The test deals with T1, GST-FOXC1 fusion protein (UniProt Q12948).
T1 sequence: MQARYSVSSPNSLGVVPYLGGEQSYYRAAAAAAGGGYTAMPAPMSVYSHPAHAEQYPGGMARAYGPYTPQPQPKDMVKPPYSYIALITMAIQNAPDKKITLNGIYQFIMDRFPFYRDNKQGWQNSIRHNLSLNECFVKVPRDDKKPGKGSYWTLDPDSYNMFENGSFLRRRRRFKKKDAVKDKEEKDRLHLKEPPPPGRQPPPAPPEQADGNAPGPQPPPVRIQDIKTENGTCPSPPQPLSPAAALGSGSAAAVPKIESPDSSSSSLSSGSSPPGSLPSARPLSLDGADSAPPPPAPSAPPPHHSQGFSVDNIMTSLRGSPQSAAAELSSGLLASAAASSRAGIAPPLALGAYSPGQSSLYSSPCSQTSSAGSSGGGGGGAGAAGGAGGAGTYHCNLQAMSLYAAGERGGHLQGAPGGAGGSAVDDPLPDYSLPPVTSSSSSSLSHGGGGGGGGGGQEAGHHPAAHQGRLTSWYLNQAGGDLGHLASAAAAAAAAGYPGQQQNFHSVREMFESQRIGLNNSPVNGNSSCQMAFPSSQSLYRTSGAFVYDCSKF
Description: pull-down; GST-tagged bait from E. coli BL21 lysate held on magnetic beads and washed; HEK-293T cell lysate added as capture protein lysate; eluate read by western blot for USP15 and FOXC1; only the target purified. (In general: In western blotting, separated proteins are transferred to a membrane and probed.)

Results are given in words; binding and its absence hold for the method and conditions named. In cells and extracts the contact can be indirect. Some results given as binding are weak or reduced against the parent protein; the word gives no strength. Where a sequence is shown, tags or fusion partners need not be part of it.

B1: Ubiquitin-specific protease 15 (enzyme, UniProt Q9Y4E8 1-981)
chain: MAEGGAADLDTQRSDIATLLKTSLRKGDTWYLVDSRWFKQWKKYVGFDSWDKYQMGDQNVYPGPIDNSGLLKDGDAQSLKEHLIDELDYILLPTEGWNKLVSWYTLMEGQEPIARKVVEQGMFVKHCKVEVYLTELKLCENGNMNNVVTRRFSKADTIDTIEKEIRKIFSIPDEKETRLWNKYMSNTFEPLNKPDSTIQDAGLYQGQVLVIEQKNEDGTWPRGPSTPKSPGASNFSTLPKISPSSLSNNYNNMNNRNVKNSNYCLPSYTAYKNYDYSEPGRNNEQPGLCGLSNLGNTCFMNSAIQCLSNTPPLTEYFLNDKYQEELNFDNPLGMRGEIAKSYAELIKQMWSGKFSYVTPRAFKTQVGRFAPQFSGYQQQDCQELLAFLLDGLHEDLNRIRKKPYIQLKDADGRPDKVVAEEAWENHLKRNDSIIVDIFHGLFKSTLVCPECAKISVTFDPFCYLTLPLPMKKERTLEVYLVRMDPLTKPMQYKVVVPKIGNILDLCTALSALSGIPADKMIVTDIYNHRFHRIFAMDENLSSIMERDDIYVFEININRTEDTEHVIIPVCLREKFRHSSYTHHTGSSLFGQPFLMAVPRNNTEDKLYNLLLLRMCRYVKISTETEETEGSLHCCKDQNINGNGPNGIHEEGSPSEMETDEPDDESSQDQELPSENENSQSEDSVGGDNDSENGLCTEDTCKGQLTGHKKRLFTFQFNNLGNTDINYIKDDTRHIRFDDRQLRLDERSFLALDWDPDLKKRYFDENAAEDFEKHESVEYKPPKKPFVKLKDCIELFTTKEKLGAEDPWYCPNCKEHQQATKKLDLWSLPPVLVVHLKRFSYSRYMRDKLDTLVDFPINDLDMSEFLINPNAGPCRYNLIAVSNHYGGMGGGHYTAFAKNKDDGKWYYFDDSSVSTASEDQIVSKAAYVLFYQRQDTFSGTGFFPLDRETKGASAATGIPLESDEDSNDNDNDIENENCMHTN
Regarding B1, the binding entry is “binds”.
